LdMetRS: 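Methionyl-tRNA synthetase (putative), Leishmania donovani (UniProt E9BF75). Primary screen of methionyl-tRNA synthetase; the read-out is not stated. The test concentration is not given. Values are per cent inhibition. Size under these conditions: about 68,000 compounds, about 24 of them at 50% or above in at least one test.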
Mtb heat-shock: 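Assay on Mycobacterium tuberculosis, filed only as a heat shock assay from Cornell; the read-out is not stated. The concentration is filed as 10 mM, unlikely as a test dose, so the dose is not known. The record gives no direction; compounds that gave an IC50 in retests scored well above the rest, so higher reads as stronger inhibition. About 69,000 compounds were tested under these conditions; 1.4% (about 930) showed 50% or more at least once.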

Sequences of proteins named here, by UniProt entry; tags and fusion partners are left off.
UniProt E9BF75, entry or part of it: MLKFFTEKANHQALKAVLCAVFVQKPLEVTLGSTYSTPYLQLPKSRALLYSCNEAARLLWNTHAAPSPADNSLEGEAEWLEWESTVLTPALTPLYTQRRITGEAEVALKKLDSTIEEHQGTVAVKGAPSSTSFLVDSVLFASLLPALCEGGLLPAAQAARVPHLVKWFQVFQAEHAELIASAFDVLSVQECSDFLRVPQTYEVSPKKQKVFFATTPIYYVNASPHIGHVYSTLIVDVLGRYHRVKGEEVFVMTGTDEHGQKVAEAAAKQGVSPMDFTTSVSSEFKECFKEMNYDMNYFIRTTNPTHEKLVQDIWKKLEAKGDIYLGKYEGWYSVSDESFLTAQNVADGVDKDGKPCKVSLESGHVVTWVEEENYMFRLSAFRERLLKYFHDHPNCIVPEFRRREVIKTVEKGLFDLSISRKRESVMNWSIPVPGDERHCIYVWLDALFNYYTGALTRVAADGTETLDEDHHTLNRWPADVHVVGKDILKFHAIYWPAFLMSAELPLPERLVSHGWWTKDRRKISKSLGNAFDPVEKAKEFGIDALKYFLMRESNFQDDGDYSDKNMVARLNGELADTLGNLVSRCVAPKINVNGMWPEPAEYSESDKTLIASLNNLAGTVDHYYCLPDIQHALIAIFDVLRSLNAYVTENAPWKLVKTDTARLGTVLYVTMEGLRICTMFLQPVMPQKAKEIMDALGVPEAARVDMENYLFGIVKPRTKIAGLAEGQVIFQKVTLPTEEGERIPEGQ

Results are percentages, as filed.
How 0% and 100% were set is not recorded. Most values in the screen are low, and negative values occur.
Compounds were drawn at random from those tested, without regard to their results.

{"smiles": "[H][C@]12CC[C@]([H])(CN(C(=O)c3ccc(C(C)=O)s3)C1)N(CC1CCC1)C2", "Mtb heat-shock": 19.71}
{"smiles": "Cc1cc(C(=O)N2CCCN(Cc3cnn(C(C)C)c3)CC2)no1", "LdMetRS": 14.38, "Mtb heat-shock": 0.06583}
{"smiles": "CS(=O)(=O)NCc1cn2c(n1)CN(Cc1ccoc1)CC2", "LdMetRS": -14.29}
{"smiles": "CN1CC[C@]2(CN(S(C)(=O)=O)C[C@H]2c2ccccc2)C1=O", "LdMetRS": 2.584, "Mtb heat-shock": 37.82}
{"smiles": "COc1nn(C)cc1C(=O)N1CCC(c2nnc(C(C)C)o2)CC1", "LdMetRS": 13.47, "Mtb heat-shock": -22.3}
{"smiles": "CCN1C(=O)CCCC12CCCN(C(=O)c1conc1C)C2", "stereo": "stereo unspecified", "LdMetRS": 6.397, "Mtb heat-shock": -22.57}
{"smiles": "CCn1ccnc1CN1CCCN(C(=O)c2cncnc2C)CC1", "LdMetRS": 10.48, "Mtb heat-shock": -10.65}
{"smiles": "CC(C)C(=O)Nc1ccc2c(c1)ncn2CC(=O)NCCN(C)C", "LdMetRS": 11.29, "Mtb heat-shock": -3.322}
{"smiles": "[H][C@@]12CNC[C@]1([H])[C@H]2CN1CCCn2nc(CNC(=O)N(C)C)cc2C1", "Mtb heat-shock": 2.085}
{"smiles": "CC(C)(O)CNC(=O)NCc1nccn1CCc1ccccc1", "LdMetRS": 19.89, "Mtb heat-shock": 2.098}
{"smiles": "Cc1cc(C)n(CC2CCCN2CCS(C)(=O)=O)n1", "stereo": "stereo unspecified", "LdMetRS": 15.26, "Mtb heat-shock": 18.07}
{"smiles": "[H][C@@]12CCCN1C[C@H](CCSC)N(Cc1cn(C)nc1C)C2", "Mtb heat-shock": -0.7317}
{"smiles": "O=C(Cn1ccc2sccc2c1=O)NCc1ccc(F)cc1", "LdMetRS": 6.977, "Mtb heat-shock": 6.411}
{"smiles": "CN(CC(=O)NCC(F)(F)F)Cc1nc2c(s1)CCCC2", "LdMetRS": 19.26, "Mtb heat-shock": 3.432}
{"smiles": "O=C1N(Cc2cccnc2)CCC12CCCN(c1ncc(F)cn1)C2", "stereo": "stereo unspecified", "LdMetRS": 13.66}
{"smiles": "Cc1cccc(CN2CCC3(CC2)NC(=O)CC3c2ccccc2)n1", "stereo": "stereo unspecified", "LdMetRS": 14.42}
{"smiles": "CCCS(=O)(=O)N1CCOC2(CCCN(c3ccccn3)C2)C1.O=C(O)C(F)(F)F", "stereo": "stereo unspecified", "Mtb heat-shock": -25.73}
{"smiles": "O=C(NC1CC1)[C@@H]1CCO[C@@H]2CCN(Cc3ccsc3)C[C@H]21", "LdMetRS": 8.418}
{"smiles": "CS(=O)(=O)N[C@@H]1CCO[C@]2(CCN(CC3CCOCC3)C2)C1", "LdMetRS": 8.042}
{"smiles": "Cc1nc(Nc2ccc(Cl)cn2)sc1C(=O)NCCCN1CCCCC1", "LdMetRS": 11.17, "Mtb heat-shock": -3.105}
{"smiles": "Cc1nc(C)n(CC2CCCN(Cc3cccc(F)c3F)C2)n1", "stereo": "stereo unspecified", "LdMetRS": 15.56, "Mtb heat-shock": -13.17}
{"smiles": "Cc1cnn(CC2CCCN2C(=O)CCc2cscn2)c1", "stereo": "stereo unspecified", "LdMetRS": 9.29, "Mtb heat-shock": -9.122}
{"smiles": "CCN(CC)Cc1nc2c(o1)CN(C(=O)c1ccncc1F)C2", "LdMetRS": 6.162, "Mtb heat-shock": 12.09}
{"smiles": "CCN(CCC(F)(F)F)S(=O)(=O)c1cccc(F)c1C#N", "LdMetRS": 11.35, "Mtb heat-shock": -42.06}
{"smiles": "Cc1csc2ncc(-c3ccnc(N4CCCC[C@@H]4CO)n3)c(=O)n12", "LdMetRS": 3.497, "Mtb heat-shock": 73.7}
{"smiles": "CC(C)C(C(=O)N1CCC2(CC1)CN(C)C(=O)O2)c1ccccc1", "stereo": "stereo unspecified", "LdMetRS": -0.2457, "Mtb heat-shock": -1.671}
{"smiles": "CCN(CC)C(=O)CCc1c(C)nc2cc(O)nn2c1C", "LdMetRS": 18.31, "Mtb heat-shock": -2.502}
{"smiles": "O=C(O)C(F)(F)F.[H][C@@]12CCN(Cc3cccc(C#N)c3)[C@@]1([H])CC(=O)N2C", "Mtb heat-shock": 1.888}
{"smiles": "CCSc1ccc(C(=O)Nc2c(C)nn(C(C)C)c2C)cn1", "LdMetRS": 11.5, "Mtb heat-shock": 12.58}
{"smiles": "COc1ccc(CN(C)[C@@H]2COC[C@H]2c2ccc(F)cc2)cc1.O=C(O)CC(O)(CC(=O)O)C(=O)O", "Mtb heat-shock": -8.721}
{"smiles": "Cc1ccc(C(=O)NCCCS(=O)(=O)c2ccccc2)c(=O)[nH]1", "Mtb heat-shock": 7.414}
{"smiles": "COc1ccc(CCNC(=O)NC2CCCC2)cc1OC", "LdMetRS": 7.609, "Mtb heat-shock": 0.04851}
{"smiles": "CC(C)c1cccc(NC(=O)N2CC(N(C)C)C2)c1", "LdMetRS": 12.57, "Mtb heat-shock": 2.031}
{"smiles": "O=C(O)C(F)(F)F.O=C(O)C(F)(F)F.O=C(O)C(F)(F)F.[H][C@@]12CN(Cc3cccnc3)C[C@]1([H])[C@H](OC)CCN2c1ncc(F)cn1", "Mtb heat-shock": -24.63}
{"smiles": "COc1ccc(S(=O)(=O)N2CCOC(C)(C(N)=O)C2)cc1", "stereo": "stereo unspecified", "LdMetRS": 11.05, "Mtb heat-shock": -6.439}
{"smiles": "O=S(=O)(NCCCN1CCCC1)c1cc(F)cc(F)c1", "LdMetRS": 21.12, "Mtb heat-shock": -10.46}

Some entries from above, unchanged:

| SMILES | LdMetRS | Mtb heat-shock |
|---|---|---|
| `O=S(=O)(NCCCN1CCCC1)c1cc(F)cc(F)c1` | 21.12% | -10.46% |
| `CCN1C(=O)CCCC12CCCN(C(=O)c1conc1C)C2` (stereo unspecified) | 6.397% | -22.57% |
| `CCN(CC)Cc1nc2c(o1)CN(C(=O)c1ccncc1F)C2` | 6.162% | 12.09% |

The values are deposited in ChEMBL (CHEMBL3988442, “University of Dundee, Small-Polar-MMV Screening Library” (2021)).